Reference: the supplement of paper PMC12823440, “Inhibitors supercharge kinase turnover through native proteolytic circuits” (Nature, 2025)
Where a name gives a salt, the structure may show the parent alone. The list shows a part of the results. Hit calls seldom repeat between salt and free forms of one compound.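 In K562 cells expressing nanoluciferase-fused kinases, luminescence was recorded at 4 h intervals between 2 and 18 h, normalized as percent of control with DMSO at 100% and a positive control at 0%. A significant (2 sigma) signal drop marks a time point as decreased. The authors' rule for a hit is not shown and takes in more than the number of time points.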

Sequences of proteins named here, by UniProt entry; tags and fusion partners are left off. A change or cut given only in a name is not applied to a line headed by its entry.
UniProt P49137, whole entry, looked up: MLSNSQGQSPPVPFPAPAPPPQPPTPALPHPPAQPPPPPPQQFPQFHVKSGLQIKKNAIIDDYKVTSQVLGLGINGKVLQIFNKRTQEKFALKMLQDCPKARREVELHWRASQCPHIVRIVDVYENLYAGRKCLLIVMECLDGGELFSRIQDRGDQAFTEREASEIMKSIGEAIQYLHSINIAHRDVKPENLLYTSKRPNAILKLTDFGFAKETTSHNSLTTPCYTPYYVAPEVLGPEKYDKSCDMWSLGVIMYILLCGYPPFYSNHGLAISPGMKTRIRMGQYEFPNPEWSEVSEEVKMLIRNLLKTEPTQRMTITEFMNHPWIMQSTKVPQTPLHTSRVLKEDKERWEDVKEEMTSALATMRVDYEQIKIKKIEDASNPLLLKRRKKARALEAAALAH
UniProt Q9BUB5: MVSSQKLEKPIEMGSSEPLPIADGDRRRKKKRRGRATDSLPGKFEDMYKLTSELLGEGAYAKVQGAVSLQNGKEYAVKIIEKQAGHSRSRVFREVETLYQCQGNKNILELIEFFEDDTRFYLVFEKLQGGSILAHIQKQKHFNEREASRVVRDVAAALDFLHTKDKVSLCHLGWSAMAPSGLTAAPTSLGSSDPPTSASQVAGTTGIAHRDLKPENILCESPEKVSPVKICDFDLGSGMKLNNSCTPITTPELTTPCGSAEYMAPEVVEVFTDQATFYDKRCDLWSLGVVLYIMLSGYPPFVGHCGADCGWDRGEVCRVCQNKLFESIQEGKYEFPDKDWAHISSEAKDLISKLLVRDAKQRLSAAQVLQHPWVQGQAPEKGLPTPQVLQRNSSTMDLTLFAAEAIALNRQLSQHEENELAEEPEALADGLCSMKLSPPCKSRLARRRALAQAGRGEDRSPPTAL

Each compound was assayed against MAPKAPK2 (UniProt P49137) (assay: number of time points (of 5) at which kinase-Nluc abundance scored as decreased, DMSO-normalised (count); higher = more persistent destabilization). Conditions: K562; 2-18 h.
With `COCCNc1nc2ccc(C#CC3(O)CCCCC3)cc2n1-c1ccnc(N)n1` (10 µM) the “number of time points” value was 0.
With `Cc1[nH]c(/C=C2\C(=O)Nc3ccccc32)c(C)c1CCC(=O)O` [Orantinib] (10 µM) the “number of time points” value was 0.
With `Nc1cc(C(F)(F)F)c(-c2cc(N3CCOCC3)nc(N3CCOCC3)n2)cn1` [Buparlisib (Hydrochloride)] (2.5 µM) the “number of time points” value was 0.
With `CCN1CCN(Cc2ccc(Nc3ncc(F)c(-c4cc(F)c5nc(C)n(C(C)C)c5c4)n3)nc2)CC1` [Abemaciclib (methanesulfonate)] (10 µM) the “number of time points” value was 0.
`Cc1ccc2cc(-c3c(C)ccc(C(=O)c4c(-c5ccccc5)n(C)n(-c5ccccc5)c4=O)c3N)ccc2n1` (2.5 µM) was tested, and the “number of time points” value was 0.
With `FC(F)(c1ccc2ncccc2c1)c1nnc2ccc(-c3ccncc3)nn12` (10 µM) the “number of time points” value was 0.
With `O=C1N[C@@H](Cc2c[nH]c3ccccc23)C(=O)N2CCC[C@@H]12` [Brevianamide F] (10 µM) the “number of time points” value was 0.
For `Cc1nc2sccn2c(=O)c1CCN1CCC(=C(c2ccccc2)c2ccc(F)cc2)CC1` (10 µM), the “number of time points” value was 0.
In the case of `O=c1[nH]c(=O)n([C@@H]2O[C@H](CO)[C@@H](O)[C@@H]2O)cc1/C=C/Br` [Sorivudine] (10 µM), the “number of time points” value is reported as 0.
`COc1cc2nccc(Oc3ccc(NC(=O)NC4CC4)c(Cl)c3)c2cc1C(N)=O` [Lenvatinib (mesylate)] (10 µM) was tested, and the “number of time points” value was 0.
With `CN1C(=O)N[C@H](Cc2c[nH]c3c(Cl)cccc23)C1=O` [Necrostatin 2] (10 µM) the “number of time points” value was 0.
`CCN1CCN(Cc2ccc(Nc3ncc(F)c(-c4cc(F)c5nc(C)n(C(C)C)c5c4)n3)nc2)CC1` [Abemaciclib] (2 µM) was tested, and the “number of time points” value was 0.
With `Cc1ccc2nc(NCCN)c3ncc(C)n3c2c1` (2.5 µM) the “number of time points” value was 0.
For `CNC(=O)c1c(F)cccc1Nc1nc(Nc2cc3c(cc2OC)CCN3C(=O)CN(C)C)nc2[nH]ccc12` (10 µM), the “number of time points” value was 0.
`Cn1nccc1Nc1nccc(-c2ccn([C@H](CO)c3ccc(Cl)c(F)c3)c(=O)c2)n1` [Ravoxertinib hydrochloride] (10 µM) was tested, and the “number of time points” value was 0.
In the case of `CN(C)CCSSCCNC(=O)C1CCN(C(=O)CSc2ccc(Cl)cc2)CC1` (10 µM), the “number of time points” value is reported as 0.
`CNC(=O)c1cc(COc2nnc(Nc3ccc(Cl)cc3)c3ccoc23)ccn1` [Telatinib] (10 µM) was tested, and the “number of time points” value was 0.
For `NCCNS(=O)(=O)c1cccc2c(Cl)cccc12` [A-3 (hydrochloride)] (10 µM), the “number of time points” value was 0.
In the case of `O=C(Nc1ccc(CN2CCOCC2)cc1)c1ccc(-c2cccc(Cl)c2)o1` (10 µM), the “number of time points” value is reported as 0.
`CCN1CCN(Cc2ccc(-c3cc4c(N[C@H](C)c5ccccc5)ncnc4[nH]3)cc2)CC1` (2.5 µM) was tested, and the “number of time points” value was 0.
`COc1cccc(OC)c1C(=O)OCc1cc(O)ccc1O[C@@H]1O[C@H](CO)[C@@H](O)[C@H](O)[C@H]1O` [Curculigoside] (10 µM) was tested, and the “number of time points” value was 0.
For `Nc1ncnc2c1c(-c1ccc(Oc3ccccc3)cc1)nn2C1CCCC1` (2.5 µM), the “number of time points” value was 0.
With `CC#CC(=O)N1CC[C@@H](n2c(=O)n(-c3ccc(Oc4ccccc4)cc3)c3c(N)ncnc32)C1` [Tirabrutinib] (10 µM) the “number of time points” value was 0.

Each compound was assayed against MKNK1 (UniProt Q9BUB5) in the same assay as above. Conditions: K562; 2-18 h.
For `CCc1c(C(=O)NNC(=O)C(O)c2cc(F)cc(F)c2)ccc(O)c1C` (stereo unspecified) (10 µM), the “number of time points” value was 0.
In the case of `COc1cc2ncnc(Nc3ccc(Cl)cc3F)c2cc1OC` (10 µM), the “number of time points” value is reported as 1.
In the case of `COc1cc(/C=C/C(=O)NCC(O)c2ccc(O)cc2)ccc1O` (stereo unspecified) [N-Feruloyloctopamine] (2.5 µM), the “number of time points” value is reported as 0.
For `NC(=O)c1nc(Nc2ccccc2)sc1NC(=O)C1CCCCC1` (10 µM), the “number of time points” value was 0.
With `O=c1cc(CN2CCOCC2)occ1OCCCCCSc1ccnc2cc(C(F)(F)F)ccc12` (10 µM) the “number of time points” value was 0.
For `O=C(O)CCC(=O)Nc1ccc(Br)cn1` [Bikinin] (10 µM), the “number of time points” value was 0.
In the case of `CC[C@@H](Oc1nc(Oc2cc(C)cc(-c3cccc(CN)c3)c2)c(F)cc1F)C(=O)O` (10 µM), the “number of time points” value is reported as 0.
With `C[C@]1(O)CCN(c2nc(N3C[C@H](O)[C@@H](O)C3)cc(C(F)(F)F)c2C#N)C1` (10 µM) the “number of time points” value was 0.
`COc1ccccc1-c1cc(Nc2cccc(CS(N)(=O)=O)c2)ncn1` (10 µM) was tested, and the “number of time points” value was 0.
`CC(=O)c1c(C)cc2cccc(O)c2c1O` [Nepodin] (10 µM) was tested, and the “number of time points” value was 0.
With `NC(=O)c1ccc2[nH]ccc2c1` (10 µM) the “number of time points” value was 0.
`COc1cc2c(cc1OC)CN(S(=O)(=O)c1ccc(OC)c(N3CCN(C(=O)c4ccc(F)cc4C(F)(F)F)CC3)c1)CC2` (10 µM) was tested, and the “number of time points” value was 0.
With `OCCn1cc(-c2ccc3c(c2)CC/C3=N\O)c(-c2ccncc2)n1` (10 µM) the “number of time points” value was 0.
With `C[C@@H]1CC[C@@H](Nc2nc(NC(C)(C)C)ncc2C(N)=O)C[C@H]1O` (10 µM) the “number of time points” value was 0.
With `CCc1cc2c(cc1N1CCC(N3CCOCC3)CC1)C(C)(C)c1[nH]c3cc(C#N)ccc3c1C2=O` [Alectinib] (10 µM) the “number of time points” value was 0.
With `COCCNc1nc2ccc(C#CC3(O)CCCCC3)cc2n1-c1ccnc(N)n1` (10 µM) the “number of time points” value was 0.
`Cc1[nH]c(/C=C2\C(=O)Nc3ccccc32)c(C)c1CCC(=O)O` [Orantinib] (10 µM) was tested, and the “number of time points” value was 0.
With `Nc1cc(C(F)(F)F)c(-c2cc(N3CCOCC3)nc(N3CCOCC3)n2)cn1` [Buparlisib (Hydrochloride)] (2.5 µM) the “number of time points” value was 1.
With `CCN1CCN(Cc2ccc(Nc3ncc(F)c(-c4cc(F)c5nc(C)n(C(C)C)c5c4)n3)nc2)CC1` [Abemaciclib (methanesulfonate)] (10 µM) the “number of time points” value was 0.
In the case of `Cc1ccc2cc(-c3c(C)ccc(C(=O)c4c(-c5ccccc5)n(C)n(-c5ccccc5)c4=O)c3N)ccc2n1` (2.5 µM), the “number of time points” value is reported as 0.
With `FC(F)(c1ccc2ncccc2c1)c1nnc2ccc(-c3ccncc3)nn12` (10 µM) the “number of time points” value was 0.
`O=C1N[C@@H](Cc2c[nH]c3ccccc23)C(=O)N2CCC[C@@H]12` [Brevianamide F] (10 µM) was tested, and the “number of time points” value was 0.
With `Cc1nc2sccn2c(=O)c1CCN1CCC(=C(c2ccccc2)c2ccc(F)cc2)CC1` (10 µM) the “number of time points” value was 0.
In the case of `O=c1[nH]c(=O)n([C@@H]2O[C@H](CO)[C@@H](O)[C@@H]2O)cc1/C=C/Br` [Sorivudine] (10 µM), the “number of time points” value is reported as 0.
With `COc1cc2nccc(Oc3ccc(NC(=O)NC4CC4)c(Cl)c3)c2cc1C(N)=O` [Lenvatinib (mesylate)] (10 µM) the “number of time points” value was 1.
For `CN1C(=O)N[C@H](Cc2c[nH]c3c(Cl)cccc23)C1=O` [Necrostatin 2] (10 µM), the “number of time points” value was 0.
`CCN1CCN(Cc2ccc(Nc3ncc(F)c(-c4cc(F)c5nc(C)n(C(C)C)c5c4)n3)nc2)CC1` [Abemaciclib] (2 µM) was tested, and the “number of time points” value was 0.
In the case of `Cc1ccc2nc(NCCN)c3ncc(C)n3c2c1` (2.5 µM), the “number of time points” value is reported as 0.
`CNC(=O)c1c(F)cccc1Nc1nc(Nc2cc3c(cc2OC)CCN3C(=O)CN(C)C)nc2[nH]ccc12` (10 µM) was tested, and the “number of time points” value was 0.
`Cn1nccc1Nc1nccc(-c2ccn([C@H](CO)c3ccc(Cl)c(F)c3)c(=O)c2)n1` [Ravoxertinib hydrochloride] (10 µM) was tested, and the “number of time points” value was 0.
With `CN(C)CCSSCCNC(=O)C1CCN(C(=O)CSc2ccc(Cl)cc2)CC1` (10 µM) the “number of time points” value was 0.
With `CNC(=O)c1cc(COc2nnc(Nc3ccc(Cl)cc3)c3ccoc23)ccn1` [Telatinib] (10 µM) the “number of time points” value was 0.
For `NCCNS(=O)(=O)c1cccc2c(Cl)cccc12` [A-3 (hydrochloride)] (10 µM), the “number of time points” value was 0.
With `O=C(Nc1ccc(CN2CCOCC2)cc1)c1ccc(-c2cccc(Cl)c2)o1` (10 µM) the “number of time points” value was 0.
With `CCN1CCN(Cc2ccc(-c3cc4c(N[C@H](C)c5ccccc5)ncnc4[nH]3)cc2)CC1` (2.5 µM) the “number of time points” value was 0.
With `COc1cccc(OC)c1C(=O)OCc1cc(O)ccc1O[C@@H]1O[C@H](CO)[C@@H](O)[C@H](O)[C@H]1O` [Curculigoside] (10 µM) the “number of time points” value was 0.
For `Nc1ncnc2c1c(-c1ccc(Oc3ccccc3)cc1)nn2C1CCCC1` (2.5 µM), the “number of time points” value was 0.
For `CC#CC(=O)N1CC[C@@H](n2c(=O)n(-c3ccc(Oc4ccccc4)cc3)c3c(N)ncnc32)C1` [Tirabrutinib] (10 µM), the “number of time points” value was 0.
